Data from PMC11645142.
These are yes or no findings as the source states them, for the method shown. Binding seen in cells or lysates may run through a third protein. Some binding calls cover weakened binding; strength is not graded here. Values belong to the molecule of their own block, whether it stands above or below them.

By UniProt entry, the sequences of proteins in these tests, tags left out. Where a name states a change or a piece, a line headed by the entry shows the natural chain unless it says otherwise. Chains listed by the source or under a name are the forms on record and can include a tag or linker. Residues count along the entry.
WT UMOD, endogenous in kidneys of UMOD^+/+ mice (mouse (endogenous in kidney)) (Q91X17, residues 25-618): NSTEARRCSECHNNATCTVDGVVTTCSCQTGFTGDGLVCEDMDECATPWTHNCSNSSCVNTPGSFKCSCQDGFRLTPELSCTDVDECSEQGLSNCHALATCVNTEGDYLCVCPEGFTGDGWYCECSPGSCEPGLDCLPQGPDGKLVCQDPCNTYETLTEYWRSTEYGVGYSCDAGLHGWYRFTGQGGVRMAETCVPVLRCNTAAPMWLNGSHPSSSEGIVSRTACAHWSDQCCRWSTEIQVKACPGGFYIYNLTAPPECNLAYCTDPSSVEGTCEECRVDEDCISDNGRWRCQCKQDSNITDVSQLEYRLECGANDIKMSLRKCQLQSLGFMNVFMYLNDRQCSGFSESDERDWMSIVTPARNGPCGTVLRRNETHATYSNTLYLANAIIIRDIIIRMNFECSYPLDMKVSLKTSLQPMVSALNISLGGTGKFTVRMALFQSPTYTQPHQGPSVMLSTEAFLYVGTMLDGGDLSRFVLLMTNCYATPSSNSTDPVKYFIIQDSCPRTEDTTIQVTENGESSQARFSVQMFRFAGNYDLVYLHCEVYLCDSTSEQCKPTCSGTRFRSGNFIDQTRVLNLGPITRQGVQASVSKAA
mutant UMOD Cys125Arg, endogenous in kidneys of UMOD^C125R/C125R knockin mice (mouse (endogenous in kidney)) (Q91X17, form named): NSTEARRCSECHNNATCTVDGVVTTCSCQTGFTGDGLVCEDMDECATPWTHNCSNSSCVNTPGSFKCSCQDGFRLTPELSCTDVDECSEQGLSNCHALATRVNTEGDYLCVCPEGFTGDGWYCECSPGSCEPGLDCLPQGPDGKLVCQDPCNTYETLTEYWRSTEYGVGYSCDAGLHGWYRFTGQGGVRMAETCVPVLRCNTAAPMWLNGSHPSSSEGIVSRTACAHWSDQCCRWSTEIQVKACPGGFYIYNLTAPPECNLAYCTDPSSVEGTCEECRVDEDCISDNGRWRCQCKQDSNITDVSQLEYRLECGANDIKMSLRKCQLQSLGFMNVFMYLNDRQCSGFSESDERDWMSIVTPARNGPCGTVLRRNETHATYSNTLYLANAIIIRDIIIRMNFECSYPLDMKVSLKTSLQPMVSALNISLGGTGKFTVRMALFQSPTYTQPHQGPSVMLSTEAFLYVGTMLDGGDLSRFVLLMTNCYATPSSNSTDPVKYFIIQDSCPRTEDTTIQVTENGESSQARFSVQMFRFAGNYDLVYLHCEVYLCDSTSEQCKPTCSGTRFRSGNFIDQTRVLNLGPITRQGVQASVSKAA
UniProt Q9R0Q3, residues 21-201: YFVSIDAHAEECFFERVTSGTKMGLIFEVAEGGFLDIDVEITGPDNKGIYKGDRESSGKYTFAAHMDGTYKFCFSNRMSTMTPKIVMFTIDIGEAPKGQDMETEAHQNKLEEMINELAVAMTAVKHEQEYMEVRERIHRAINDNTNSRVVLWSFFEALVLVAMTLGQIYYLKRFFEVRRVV

Legend:
[1] = target: WT UMOD, endogenous in kidneys of UMOD^+/+ mice (mouse (endogenous in kidney)) (UniProt Q91X17); assay: co-IP; endogenous; whole-kidney lysate (NP-40 lysis buffer, 2 mg protein) of UMOD^+/+ or UMOD^C125R/C125R mice on THP (B-2) agarose beads overnight at 4°C, normal mouse IgG agarose beads as control; blot
[2] = target: mutant UMOD Cys125Arg, endogenous in kidneys of UMOD^C125R/C125R knockin mice (mouse (endogenous in kidney)) (UniProt Q91X17); assay: as above

binding [1]: binds
binding [2]: binds
Molecule: TMED2, endogenous in mouse kidney (from UniProt Q9R0Q3 21-201)

binding [1]: binds
binding [2]: binds
B1: TMED9, endogenous in mouse kidney (protein, UniProt Q99KF1 38-235)
chain: LYFHIGETEKKCFIEEIPDETMVIGNYRTQLYDKQREEYQPATPGLGMFVEVKDPEDKVILARQYGSEGRFTFTSHTPGEHQICLHSNSTKFSLFAGGMLRVHLDIQVGEHANDYAEIAAKDKLSELQLRVRQLVEQVEQIQKEQNYQRWREERFRQTSESTNQRVLWWSILQTLILVAIGVWQMRHLKSFFEAKKLV
